Data reported in the supplement of paper PMC13380429.

Legend:
Conditions in all cases: 72 h
Vero E6 [1] = assay: drug sensitivity score (DSS) for viability; higher = more toxic; extreme values may be limits of the assay
Caco-2 [2] = assay: as above
HepG2 [3] = assay: as above
U2OS [4] = assay: as above
Vero E6 [5] = assay: cell viability relative to DMSO; higher = less toxic
Caco-2 [6] = assay: as above
HepG2 [7] = assay: as above
U2OS [8] = assay: as above
Vero E6 [9] = assay: relative viability EC50 (midpoint between 100% and the lowest measured viability); higher = less toxic
Caco-2 [10] = assay: as above
HepG2 [11] = assay: as above
U2OS [12] = assay: as above

O=C(O)C1=C[C@@H](O)[C@@H](O)[C@H](O)C1 [shikimic-acid]
Conditions	drug sensitivity score	relative viability EC50 [µM]
Caco-2 [2]	0	–
Caco-2 [10]	–	> 10
HepG2 [3]	0	–
HepG2 [11]	–	> 10
U2OS [4]	0	–
U2OS [12]	–	> 10
Vero E6 [1]	0	–
Vero E6 [9]	–	> 10

cell viability [%]
Conditions	1 nM	10 nM	100 nM	1000 nM	10000 nM
Caco-2 [6]	90.7	96.7	102	94.4	97.2
HepG2 [7]	100	95.5	103	92.8	109
U2OS [8]	95.6	100	95.1	98.5	94.7
Vero E6 [5]	97.9	94.4	101	95.8	106
